Data as given in PubChem BioAssay AID493014 (National Center for Advancing Translational Sciences (NCATS), 2011).
The other results are listed elsewhere or left out. Further columns of the screen follow, without active or inactive calls. Most of these compounds were active or inconclusive in the main read-out, so they are no random draw. The note in brackets gives the kind of curve behind each potency; many fits are weak.

Experiment: qHTS Assay to Find Inhibitors of Chronic Active B-Cell Receptor Signaling
Details: ABC-DLBCL IkBa-CBG/CBR reporter, luminescence ratio (green luciferase fused to IkBa over red control in TMD8 lymphoma cells), 4 h
Outline: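 Compounds up to 46 uM were incubated four hours with TMD8 cells whose green CBG68 luciferase is fused to IkappaBalpha; red CBR luminescence normalised the signal, and concentration-effect curves were fitted to fusion, red and ratio data.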

[1] = measured here: CBR red luminescence, cell number
[2] = measured here: IkBa-CBG green luminescence

Compound | AC50 [1] | AC50 [2]
Cc1cc(C)n(C(=O)CNc2ccc(C)c(C)c2)n1 | 23.1 µM [falling, single point] | 
COc1ccc2nc(N3CCC(C)CC3)c(C#N)cc2c1 | 4.61 µM [rising, full curve, poor fit] | 
COc1ccc(OC)c(-c2c3cc(O)c(=O)cc-3oc3cc(O)c(O)cc23)c1 | 29.1 µM [rising, single point] | 
O=S(=O)(NCCc1csc(-c2cccnc2)n1)c1cccs1 | 6.51 µM [rising, single point] | 
O=C1/C(=C/c2cccnc2)SC(=S)N1c1ccc(F)cc1 | 5.8 µM [rising, full curve, poor fit] | 
CN(C)CCOC(=O)CC12CC3CC(C1)CC(CC(=O)OCCN(C)C)(C3)C2 | 35.5 µM [falling, single point] | 
Cc1ccc(S(=O)(=O)NC2=C(N3CCN(Cc4ccccc4)CC3)C(=O)c3ccccc3C2=O)cc1 | 2.06 µM [rising, full curve, poor fit] | 
Cc1cc(=O)oc2ccc(OCC(=O)N3CCC(C)CC3)cc12 | 23.1 µM [rising, single point] | 
Cn1nnc2c[n+](CC(=O)c3ccc4ccccc4c3)cc(Br)c21 | 5.62 µM [rising, single point] | 
Clc1cccc(-c2ccc3ncnc(NCc4ccc5c(c4)OCO5)c3c2)c1 | 29.1 µM [falling, single point] | 
COC(=O)c1c(C)nc(C)c(C(=O)OC)c1-c1ccc(OC)c(OC)c1 |  | 11.2 µM [falling, partial curve, poor fit]
S=C(Nc1ccccc1)Nc1ccc(Cl)cn1 | 1.12 µM [rising, full curve, poor fit] | 
O=C(CN1C(=O)/C(=C\c2ccccc2Br)Oc2ccccc21)NCCCN1CCOCC1 | 17.8 µM [falling, single point] | 
O=C(Nc1ccon1)c1csc2c1CCCC2 | 7.31 µM [falling, partial curve, poor fit] | 
C#CCn1c(=NC(=O)c2cccs2)sc2cccc(OC)c21 | 4.11 µM [falling, partial curve, poor fit] | 
O=[N+]([O-])c1ccc(C(c2sc3nc(-c4ccco4)nn3c2O)N2CCN(c3cccc(Cl)c3)CC2)cc1 (stereo unspecified) | 35.5 µM [falling, single point] | 
CC1(C)CC(=O)C2=C(C1)NC(=O)NC2c1ccc(Cl)cc1 (stereo unspecified) | 25.1 µM [falling, single point] | 
CC(C)(C)c1nc(CN2CCOCC2)cc(CN2CCOCC2)c1O | 29.1 µM [rising, single point] | 
Cc1ccc(S(=O)(=O)N2CCOCC2)cc1C(=O)N1CCN(S(=O)(=O)c2cccs2)CC1 | 0.112 µM [falling, full curve, poor fit] | 
Cc1ccc(NC(=O)CCn2nnc3ccccc32)cc1 | 14.1 µM [rising, partial curve, poor fit] | 

Compound | AC50 [1] | AC50 [2]
CCc1ccc(Nc2cnn(-c3nc4ccccc4s3)c(=O)c2Cl)cc1 | 8.2 µM [rising, partial curve, poor fit] | 23.1 µM [rising, partial curve, poor fit]
CCOC(=O)CCCc1ccc(/C(C)=N/NC(N)=S)cc1 | 1.78 µM [falling, partial curve] | 
COc1cccc(CNC(=O)N2CCN(c3ccccc3)CC2)c1 | 5.01 µM [falling, full curve] | 
O=C(NCC1CCCO1)/C(=C\c1ccco1)NC(=O)c1ccccc1 (stereo unspecified) | 3.16 µM [falling, partial curve, poor fit] | 
CN1CCN(c2ccc(NC(=O)c3ccc(-c4cccc([N+](=O)[O-])c4)o3)cc2)CC1 | 35.5 µM [falling, single point] | 
CCc1ccc(NC(=O)CSc2nc3n[nH]c(C)c3c(=N)n2-c2cccc(OC)c2)cc1 | 32.6 µM [falling, single point] | 
O=[N+]([O-])c1cc([N+](=O)[O-])c(Oc2c(F)cc(F)cc2F)cc1NN1CCCCC1 | 31.6 µM [falling, partial curve, poor fit] | 
O=C(O)C1CC(=O)N(c2ccc(Br)cc2)C1 (stereo unspecified) | 29.1 µM [falling, single point] | 
Cc1ccsc1/C=N/Nc1nc(Cl)c(Cl)cc1Cl | 0.316 µM [rising, full curve] | 
O=C(Nc1ccc(Cl)cc1F)c1cc(S(=O)(=O)NCc2ccc3c(c2)OCO3)ccc1F | 35.5 µM [rising, single point] | 
COc1ccc(C2CC(c3ccccc3F)=NN2c2ccc(S(N)(=O)=O)cc2)cc1 (stereo unspecified) | 29.1 µM [rising, single point] | 
CN(CC(=O)Nc1ccc(Cl)c(C(F)(F)F)c1)C(=O)CCCNC(=O)c1ccc(Cl)cc1 | 0.411 µM [falling, full curve] | 
CCCN(c1ccc(OCC)cc1)S(=O)(=O)c1ccc2c(c1)NC(=O)CO2 | 31.6 µM [falling, partial curve, poor fit] | 
Cc1cccc(NC(=O)c2nc[nH]c2C(=O)N[C@@H](Cc2ccccc2)C(=O)OC(C)(C)C)c1 | 22.4 µM [rising, single point] | 
C[C@H](NC(=O)c1nc[nH]c1C(=O)NCc1ccccc1)c1ccccc1 | 32.6 µM [falling, single point] | 
CCSC1(SCC)N=C(N)C2(C#N)C(c3ccc(OC)c(OC)c3OC)C12C#N (stereo unspecified) | 18.4 µM [falling, partial curve] | 
Cc1ccccc1OCC(=O)Nc1ccc(N2CCN(C(=O)C(C)C)CC2)c(Cl)c1 | 17.8 µM [falling, partial curve, poor fit] | 
CCOC(=O)C1CCN(c2ncnc3c2c(-c2ccccc2)cn3-c2ccccc2)CC1 | 3.55 µM [rising, single point] | 
COC(=O)C(C)SC1=N/C(=C/c2ccc(-n3cncn3)cc2)C(=O)N1 (stereo unspecified) | 35.5 µM [falling, single point] | 
CN(C)C(=C(C#N)C#N)N1CCN(c2ccc(Cl)cc2)CC1 | 2.24 µM [rising, full curve, poor fit] | 
